Results from PubChem BioAssay AID2517 (National Center for Advancing Translational Sciences (NCATS), 2010).
The whole screen tested about 350,000 compounds, of which about 1,200 (0.34%) were called active. The inconclusive results got no clear call from the source; some entries with a clear call stand among them for comparison. Calls come from the whole dose curve; as a rule, active = well fitted inhibition curve with a large enough effect; inconclusive = small, poorly fitted or top-dose-only effect; inactive = no such curve, though single readings can be large or run the other way. A potency beside an inconclusive call is a rough fit, not a confirmed value.

Protein sequences, listed by entry. Tags and fused reporters are not part of them.
UniProt P27695, whole entry, looked up: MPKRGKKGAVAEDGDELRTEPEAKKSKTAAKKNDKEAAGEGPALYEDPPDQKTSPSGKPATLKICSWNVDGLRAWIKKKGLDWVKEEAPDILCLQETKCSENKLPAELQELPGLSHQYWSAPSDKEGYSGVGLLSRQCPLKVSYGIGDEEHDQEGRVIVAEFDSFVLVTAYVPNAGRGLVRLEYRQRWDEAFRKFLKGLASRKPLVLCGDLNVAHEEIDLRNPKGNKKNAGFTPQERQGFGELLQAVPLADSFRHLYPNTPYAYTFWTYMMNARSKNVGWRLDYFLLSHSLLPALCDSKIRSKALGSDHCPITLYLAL

What follows are compounds tested against DNA repair nuclease/redox regulator APEX1 (Homo sapiens) (UniProt P27695) (assay: qHTS Assay for Inhibitors of the Human Apurinic/apyrimidinic Endonuclease 1 (APE1)). Conditions: recombinant APE1, TAMRA/BHQ-2 abasic DNA cleavage fluorescence; activity change, negative = inhibition: at 65.8 µM (top of the series).
Outline: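 Quantitative HTS: incision of a TAMRA/BHQ-2 double-stranded substrate bearing a tetrahydrofuran abasic site by 0.75 nM APE1 raises fluorescence. Substrate 50 nM final, added after 15 min compound preincubation at room temperature; progress as third-minus-first kinetic read difference.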
Note: nearly all actives have a fitted effect of over 55% in size.
Potency is the fitted concentration of half-maximal effect.
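Throughout, for activity change, negative = inhibition: plate controls were vehicle for no effect and reference inhibitor for full effect.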

| Compound | Potency | activity change, negative = inhibition |
| --- | --- | --- |
| COC(=O)c1ccc(OCCN2C3=NCCN3c3ccccc32)cc1 | inconclusive: 0.0891 µM [inhibitor, full curve, poor fit] | – |
| Cc1ccc(-n2c(O)c(C=Nc3ccccc3-c3n[nH]c(=S)[nH]c3=O)c3ccccc3c2=O)c(C)c1 | – | inactive: 15.7% |
| O=C(Nc1ccc(-c2csc(Nc3cccc(C(F)(F)F)c3)n2)cc1)c1ccccc1 | inconclusive: 44.7 µM [inhibitor, single point] | – |
| CNc1ccc(Br)cc(C(=O)/C=C/c2ccc3c(c2)OCO3)c1=O | inconclusive: 39.8 µM [inhibitor, partial curve] | – |
| CCN(CC)C(=O)c1ccc(-c2ccccc2)cc1 | inconclusive: 14.1 µM [inhibitor, partial curve, poor fit] | – |
| Cc1ccc(-c2cccc(C(=O)NCc3ccccc3)n2)c2ccccc12 | inconclusive: 3.55 µM [inhibitor, single point] | – |
| O=C(c1ccccc1F)N1CCN(c2ccccc2)CC1 | inconclusive: 1.12 µM [inhibitor, full curve, poor fit] | – |
| COc1ccccc1Nc1nnc(SCC2CCCCO2)s1 (stereo not drawn) | inconclusive: 0.0009 µM [inhibitor, full curve, poor fit] | – |
| COc1cc(C(=S)N2CCOCC2)cc(OC)c1OC(=O)c1cc([N+](=O)[O-])c(C)c([N+](=O)[O-])c1 | inconclusive: 44.7 µM [inhibitor, single point] | – |
| CCOC(=O)C1=C(C)N=c2s/c(=C/c3cccc([N+](=O)[O-])c3O)c(=O)n2C1c1ccc(OC)cc1OC (stereo not drawn) | active: 23.8 µM | – |
| CC(C)C[C@H](NC(=O)[C@H](CCCCN)NC(=O)CNC(=O)[C@H](CC(C)C)NC(=O)[C@@H](NC(=O)[C@@H]1CSSC[C@H](N)C(=O)N[C@@H](CO)C(=O)N[C@@H](CC(N)=O)C(=O)N[C@@H](CC(C)C)C(=O)N[C@@H](CO)C(=O)N[C@@H]([C@@H](C)O)C(=O)N1)C(C)C)C(=O)N[C@@H](CO)C(=O)N[C@@H](CCC(N)=O)C(=O)N[C@@H](CCC(=O)O)C(=O)N[C@@H](CC(C)C)C(=O)N[C@@H](Cc1cnc[nH]1)C(=O)N[C@@H](CCCCN)C(=O)N[C@@H](CC(C)C)C(=O)N[C@@H](CCC(N)=O)C(=O)N[C@H](C(=O)N[C@@H](Cc1ccc(O)cc1)C(=O)N1CCC[C@H]1C(=O)N[C@@H](CCCNC(=N)N)C(=O)N[C@H](C(=O)N[C@@H](CC(N)=O)C(=O)N[C@H](C(=O)NCC(=O)N[C@@H](CO)C(=O)NCC(=O)N[C@H](C(=O)N1CCC[C@H]1C(N)=O)[C@@H](C)O)[C@@H](C)O)[C@@H](C)O)[C@@H](C)O | – | inactive: 12.9% |
| CCc1nccn1CCC(=O)N1CCCC(N2CCN(c3cccc(Cl)c3)CC2)C1 (stereo not drawn) | inconclusive: 26.7 µM [inhibitor, single point] | – |
| CSCCC1NC2(C(=O)Nc3c2ccc(Cl)c3C)[C@@H]2C(=O)N(C3CCCC3)C(=O)[C@H]12 (stereo partly drawn) | inconclusive: 17.8 µM [inhibitor, single point] | – |
| COc1ccc(C(=O)COc2ccccc2C#N)cc1 | inconclusive: 3.16 µM [inhibitor, partial curve] | – |
| O=C(CSc1nc2cc(Cl)ccc2s1)NC(=O)NCc1ccco1 | inconclusive: 25.1 µM [inhibitor, single point] | – |
| O=C(NCc1ccco1)c1cc(S(=O)(=O)N2CCOCC2)ccc1Cl | inconclusive: 22.4 µM [inhibitor, single point] | – |
| COc1ccc(-c2csc(N3C(=O)C4C5c6ccccc6C(c6ccccc65)[C@@H]4C3=O)n2)cc1 (stereo partly drawn) | inconclusive: 25.1 µM [inhibitor, single point] | – |
| c1csc(CNc2ccnc(-c3ccc4c(c3)OCO4)n2)c1 | inconclusive: 39.8 µM [inhibitor, single point] | – |
| Cc1ccc(C(=O)OCn2nnc3ccccc3c2=O)cc1[N+](=O)[O-] | inconclusive: 22.4 µM [inhibitor, single point] | – |
| COc1cc2c(=O)nc3n(c2cc1OC)C(c1ccccc1)N=C(N)N3 (stereo not drawn) | inconclusive: 39.8 µM [inhibitor, single point] | – |

Three structures already listed, arranged by formula weight, descending:

| Compound | Potency | activity change, negative = inhibition |
| --- | --- | --- |
| CSCCC1NC2(C(=O)Nc3c2ccc(Cl)c3C)[C@@H]2C(=O)N(C3CCCC3)C(=O)[C@H]12 (stereo partly drawn) | inconclusive: 17.8 µM [inhibitor, single point] | – |
| O=C(Nc1ccc(-c2csc(Nc3cccc(C(F)(F)F)c3)n2)cc1)c1ccccc1 | inconclusive: 44.7 µM [inhibitor, single point] | – |
| COc1cc2c(=O)nc3n(c2cc1OC)C(c1ccccc1)N=C(N)N3 (stereo not drawn) | inconclusive: 39.8 µM [inhibitor, single point] | – |

Going on with the list:

| Compound | Potency | activity change, negative = inhibition |
| --- | --- | --- |
| COc1ccc2oc(C(=O)Nc3ccccc3N3CCOCC3)c(C)c2c1 | – | inactive: -11.3% |
| CCCCCCC#CC1C=CC(OC(=O)OCC)C(COC(=O)OCC)O1 (stereo not drawn) | – | inactive: -7.94% [at 12.4 µM] |
| CC(C)Cn1c(N)c(C(=O)COC(=O)c2cc(-c3ccco3)nc3ccccc23)c(=O)n(C)c1=O | active: 11.2 µM | – |
| CN(C)/C=C/C(=O)c1cnc2sccn2c1=O | inconclusive: 39.8 µM [inhibitor, single point] | – |
| CC1CCc2nc(/C(C#N)=C/c3ccncc3)sc2C1 (stereo not drawn) | inconclusive: 79.4 µM [inhibitor, partial curve] | – |
| CCOc1cc(N2CCOCC2)c(OCC)cc1NC(=O)CSc1cccc[n+]1[O-] | inconclusive: 39.8 µM [inhibitor, single point] | – |
| O=C(CCCOc1ccc(Cl)cc1Cl)Nc1ccc(O)cc1C(=O)O | inconclusive: 35.5 µM [inhibitor, single point] | – |
| CN(C)CCCN(Cc1ccccc1)C(=S)Nc1ccc(F)c(Cl)c1 | inconclusive: 1.58 µM [inhibitor, partial curve, poor fit] | – |
| Cc1ccc(C(=O)NCc2occc2C(=O)O)o1 | inconclusive: 17.8 µM [inhibitor, partial curve] | – |
| CCC1CCCCC1 | – | inactive: 0.65% |
| CCc1cc2c(nc1CC)CCN(CC/C(C)=N/OC[C@H]1O[C@H](c3ccccc3)C=C[C@@H]1Oc1ccc(OC)cc1)C2 | inactive | – |
| Cc1ccc(S(=O)(=O)N2CCC(=O)N(C(COCc3ccc(Cl)cc3Cl)Cc3ccccc3)CC2)cc1 (stereo not drawn) | inconclusive: 3.55 µM [inhibitor, single point] | – |
| CC(C)OC(=O)c1cccc(NC(=O)c2ccccc2)c1 | inconclusive: 2.51 µM [inhibitor, single point] | – |
| COc1ccc(-c2cc(C(=O)OCC(=O)NC(C)(C)C)c3ccccc3n2)cc1 | inconclusive: 20 µM [inhibitor, partial curve] | – |
| CC(C)(C)c1ccc(OCC(O)CN(CCO)CC(O)Cn2ccc3ccccc32)cc1 (stereo not drawn) | inconclusive: 0.0708 µM [inhibitor, full curve, poor fit] | – |
| O=C(c1cccc(S(=O)(=O)NCc2ccccc2)c1)N1CCCC1 | inconclusive: 44.7 µM [inhibitor, single point] | – |
| COc1ccc(OC)c(CCNC(=O)c2ccc3c(=O)[nH]c4c(C(=O)NC(C)C)sc(=S)n4c3c2)c1 | inconclusive: 37.7 µM [inhibitor, single point] | – |
| O=C(c1ccco1)[C@@H]1[C@@H]2C(=O)N(c3ccc(F)cc3)C(=O)[C@@H]2[C@H]2C=Cc3ccccc3N21 | inconclusive: 39.8 µM [inhibitor, single point] | – |
| C/C(=N\NC(=O)c1cc(-c2ccncc2)nc2ccccc12)c1ccc(OC(F)F)cc1 | inconclusive: 22.4 µM [inhibitor, single point] | – |
| CC1CC(=O)N(c2ccc(NCc3ccccc3Cl)c([N+](=O)[O-])c2)C1=O (stereo not drawn) | inconclusive: 10 µM [inhibitor, partial curve, poor fit] | – |

| Compound | Potency | activity change, negative = inhibition |
| --- | --- | --- |
| C=CCCC(=O)Nc1nc(C)c(-c2csc(Nc3cccc(OC)c3)n2)s1 | inconclusive: 0.158 µM [inhibitor, partial curve] | – |
| COc1ccc2c(c1-c1c3c(cc(Br)c1OC)CCCC3)CCCC2 | – | inactive: -5.29% |
| COC(=O)c1ccc(C(NC(=O)OCc2ccccc2)/C(C)=C/[C@@H](C)C(=O)NCc2cc(C)on2)cc1 (stereo partly drawn) | – | inactive: 0.278% |
| COc1ccc(NC(=O)NC2CCCCCCC2)cc1OC | – | inactive: 4.67% |
| CCOc1ccc(/C(C)=N/NC(=O)C(OC)c2ccccc2)cc1 (stereo not drawn) | inconclusive: 31.6 µM [inhibitor, single point] | – |
| O=c1[nH]cnc2c1nc(Cl)n2C1OC(CO)C(O)C1O (stereo not drawn) | inconclusive: 39.8 µM [inhibitor, partial curve, poor fit] | – |
| Cc1ccc(-c2noc(CCC(=O)N3CCN(c4cccc(C(F)(F)F)c4)CC3)n2)cc1 | inconclusive: 44.7 µM [inhibitor, single point] | – |
| COc1cccc(-c2ccc3nnc(SCC(=O)Nc4ccc(NC(C)=O)cc4)n3n2)c1 | – | inactive: 19.8% |
| CC(C)c1ccccc1NC(=O)c1ccc(CN(c2ccccc2)S(=O)(=O)c2ccccc2)cc1 | inconclusive: 44.7 µM [inhibitor, single point] | – |
| CC(C)(C)NC(=O)c1c(F)c(F)c(F)c(F)c1F | – | inactive: -1.36% |
| O=C(NCc1nc2ccccc2[nH]1)C1=C[C@@H](c2ccccc2)C[C@@H](OCc2ccc(CO)cc2)O1 | inconclusive: 0.282 µM [inhibitor, full curve] | – |
| CCOc1ccc(S(=O)(=O)Nc2cc(SCC(=O)O)c(O)c3ccccc23)cc1 | – | inactive: 8.75% |
| Cc1ccc(C(=O)O)cc1-c1ccc(/C=C2/NC(=O)N(c3ccccc3)C2=O)o1 | active: 11.2 µM | – |
| COc1cc2c(cc1OC)CN(C(=O)Cn1ccccc1=O)CC2 | – | inactive: -28% |
| O=C1N(Cc2cccc(Cl)c2)C[C@@H]2C[C@@H](c3c[nH]c4ccccc34)N3CCC[C@@]123 | inconclusive: 7.94 µM [inhibitor, full curve, poor fit] | – |
| CC1(C)Cc2nc3sc4c(N(CCO)CCO)nnnc4c3cc2CO1 | inconclusive: 0.112 µM [inhibitor, partial curve] | – |
| O=c1sc2ccccc2n1Cc1ccccc1 | inconclusive: 35.5 µM [inhibitor, single point] | – |
| Nc1nc(-c2ccccc2)c(N=Nc2cccc3ccccc23)s1 | inconclusive: 8.91 µM [inhibitor, full curve, poor fit] | – |
